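Whole-parasite assay of Trypanosoma brucei over 72 hours; the read-out is not stated. Tested at 30 µM. The record gives no direction; compounds that gave an IC50 in retests scored well above the rest, so higher reads as stronger inhibition. Values scatter widely below zero; nearly all retest evidence comes from the higher of the two concentrations used. About 64,000 compounds were tested under these conditions; 1.5% (about 940) showed 50% or more at least once.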

Each number is a percent effect as filed. The controls that fix the scale are not given in the record; negative values are as filed. Compounds were drawn at random from those tested, without regard to their results.

| # | SMILES | effect |
|---|---|---|
| 1 | `COCC(=O)NCCc1nc(N(C)C)ncc1-c1ccncc1` | 6.751 |
| 2 | `CS(=O)(=O)Nc1cccc(CNC(=O)c2cccs2)c1` | -18 |
| 3 | `Cc1sc(Br)cc1S(=O)(=O)NCc1ccccn1` | -1.92 |
| 4 | `CCc1nsc(NC2CCCn3nc(CC)nc32)n1` (stereo not drawn) | 11.64 |
| 5 | `Cc1nn(C)c(C)c1-c1cc(-c2cc(CC(=O)O)cs2)nc(N)c1C#N` | -16.89 |
| 6 | `O=C(O)c1cc(S(=O)(=O)N2CCOc3ccccc32)cc(Cl)c1Cl` | 4.444 |
| 7 | `O=C(O)C(F)(F)F.O=C(O)C(F)(F)F.[H][C@]12C[C@@H](C(=O)Nc3cccnc3)CO[C@@]1([H])CCN(CCC)C2` | -5.054 |
| 8 | `COCC1CC2(CCN(Cc3ccccn3)CC2)CN1C(C)C` (stereo not drawn) | 18.74 |
| 9 | `CC(C)(C)C(=O)N[C@H]1CC[C@H](Nc2nccc(-c3ccncc3)n2)C1` | -2.196 |
| 10 | `Cc1nc(N2CCC3(CCCN(CC4CC4)C3=O)C2)c2sccc2n1` (stereo not drawn) | -13.18 |
| 11 | `CC(C)N1c2sc(-c3ccsc3)nc2CC1C(=O)NC1CC1` (stereo not drawn) | 20.94 |
| 12 | `CCCn1cc(-c2cc(-c3cnc(OC)nc3)c(C#N)c(N)n2)c(C)n1` | 73.84 |
| 13 | `CN1CCN(c2ccccc2CNC(=O)Cc2cccc(F)c2)CC1` | -47.45 |
| 14 | `CC(=O)c1cc(CC(=O)N2CCCC2c2nc(C(C)C)no2)cs1` (stereo not drawn) | -41.32 |
| 15 | `COc1cc(-c2cc(OC)c(OC)c(OC)c2)ncn1` | -2.102 |
| 16 | `CN1CCC(C(=O)NCc2nncn2-c2ccccc2)CC1=O` (stereo not drawn) | -30.27 |
| 17 | `[H][C@]12CC[C@]([H])(CN(S(=O)(=O)N(CC)CC)C1)N(Cc1cscn1)C2=O` | -11.04 |
| 18 | `Cc1csc2cc(C(=O)NC3CCCC3)cnc12` | -31.83 |
| 19 | `CCc1ccc(CNC(=O)NC2CCCc3c2cnn3CCO)s1` (stereo not drawn) | 22.44 |
| 20 | `CCn1cncc1Cn1ncc2ccccc2c1=O` | 10.89 |
| 21 | `CN1C(=O)CC(c2cnn(C)c2)C12CCN(C(=O)c1ccno1)CC2` (stereo not drawn) | 41.78 |
| 22 | `Cc1noc(-c2ccc(N(C)Cc3ccncn3)nc2)n1` | -22.9 |
| 23 | `Cc1cc(C)n(CC2(CNC(=O)C(c3ccccc3C)N(C)C)CC2)n1` (stereo not drawn) | -18.34 |
| 24 | `O=S(=O)(c1ccccc1)N1CCOCC(Cc2cccnc2)C1` (stereo not drawn) | -8.627 |
| 25 | `c1ccc2c(c1)CC(Cc1cc(N3CCCC3)cnn1)CO2` (stereo not drawn) | -3.128 |
| 26 | `CN(Cc1ccccc1)CC(O)Cn1cnc2cc(F)ccc2c1=O` (stereo not drawn) | 19.35 |
| 27 | `CN(c1ccc(C#N)cn1)C1CCCN(Cc2noc(C3CC3)n2)C1` (stereo not drawn) | -35.09 |
| 28 | `Cc1cc(N2CCCN(C(=O)Cc3ccc(O)c(Cl)c3)CC2)ccn1` | 2.325 |
| 29 | `Cc1noc(C)c1CN(C)C(=O)C1(NS(C)(=O)=O)CCCCC1` | -69.29 |
| 30 | `Cc1nc(N)cc(C2CCN2CCC(N)=O)n1` (stereo not drawn) | -7.363 |
| 31 | `Cc1cccc(-c2ncc(CNC(C)Cc3ccncc3)cn2)c1` (stereo not drawn) | -157.2 |
| 32 | `COC(=O)c1cccc(-c2nc(CC3CCN(C)CC3)no2)c1` | -26.12 |
| 33 | `CC(O)CN(CC(=O)NC(=O)NCC(F)(F)F)c1ccccc1` (stereo not drawn) | -31.27 |
| 34 | `CN1CCN(C2CCN(CCOc3cccc(Cl)c3)CC2)C1=O` | 5.711 |
| 35 | `COC(=O)c1ccc(S(=O)(=O)NC2CNC(=O)C2)cc1` (stereo not drawn) | -4.908 |
| 36 | `Cc1ccc(CNCc2nnc3n2CC(C(F)(F)F)CC3)o1` (stereo not drawn) | -20.5 |
| 37 | `Cc1ccc(N2CCC3(CCN(C(=O)c4ccnnc4)CC3)CC2)nn1.O=C(O)C(F)(F)F` | 18 |
| 38 | `O=C(c1cc(C2CC2)on1)N1CC[C@]2(C[C@H](Oc3cccnc3)CO2)C1` | 20.06 |
| 39 | `COc1ccccc1CNC(=O)COc1ccc2c(c1)OCC2O` (stereo not drawn) | -20.05 |
| 40 | `CC(C)C(Sc1cccs1)C(=O)NCc1cccnc1` (stereo not drawn) | 14.9 |
| 41 | `CC(C)C(O)C1CCN(c2ccnc(C(=O)NCc3ccco3)c2)CC1` (stereo not drawn) | -107.2 |
| 42 | `CC(=O)N1CCN(C(=O)NCCCc2cn[nH]c2C)CC1` | -9.641 |
| 43 | `Cc1cc(C)c2[nH]c(C(=O)NCCN3CCOC3=O)c(C)c2c1` | -103.4 |
| 44 | `CC(=O)N(CCc1nc(-c2cc(C(N)=O)co2)cs1)C(C)C` | -26.93 |
| 45 | `CCc1cccc(NS(=O)(=O)c2cc(C)c(C(=O)O)s2)c1` | -51.69 |
| 46 | `COc1ncccc1C(=O)N1CCC(c2nnc(C3CC3)o2)CC1` | 42.71 |
| 47 | `Cc1noc(C)c1CN1CCN(C)c2ncccc2C1.O=C(O)C(F)(F)F.O=C(O)C(F)(F)F` | -26.08 |
| 48 | `CC(C)(C)c1cnc(CN2CCC(c3ccnn3CCO)CC2)o1` | 1.2 |
| 49 | `COc1ccc(C(=O)CCc2nc(C3CC3)no2)cc1` | -24.16 |
| 50 | `O=C(Nc1cc(F)ccc1OCC1CCCO1)c1ccoc1` (stereo not drawn) | -5.306 |
| 51 | `CCc1cc(N2CCC(NC(=O)CCC3CCCO3)CC2)ncn1` (stereo not drawn) | -33.06 |
| 52 | `O=C(Cc1ccc2c(c1)CCO2)N1CCN(c2cnccn2)CC1` | 5.704 |
| 53 | `CCn1nc(C)c2nnn(CC(=O)Nc3cccc(F)c3)c(=O)c21` | -23.58 |
| 54 | `O=C(O)C(F)(F)F.[H][C@]12CCN(S(C)(=O)=O)CC[C@@]1([H])S(=O)(=O)CCN2Cc1cccc(C)n1` | -72.37 |
| 55 | `Cc1c(Cn2c(=O)cnc3ccccc32)cnn1C` | 1.651 |
| 56 | `[H][C@@]12CCN(Cc3nc(C)cs3)C[C@@]1([H])O[C@@H](C)C2` | -2.498 |
| 57 | `N[C@H]1CN(C(=O)c2ccc(CO)cc2)C[C@@H]1C1CC1` | -16.91 |
| 58 | `O=C1CCC2(CCCN(C(=O)c3ccc[nH]3)C2)CN1CCc1c[nH]cn1` (stereo not drawn) | -67.51 |
| 59 | `C/C=C(\C)CN1C[C@@H](NC(=O)c2ccc(O)c(Cl)c2)C[C@H]1C(=O)NCC` | -20.51 |
| 60 | `COc1ncnc2c1CCN(Cc1cccc(C)n1)CC2` | -14.32 |
| 61 | `c1cncc(COCC2CN(Cc3ccncc3)Cc3ccnn3C2)c1` (stereo not drawn) | -217.6 |
| 62 | `COc1ccccc1CN1CCC(Cc2cnc(CN(C)C)cn2)CC1` | 0.3097 |
| 63 | `COc1c(C2CCCN2C(=O)Cc2c(C)noc2C)c(C)nn1C` (stereo not drawn) | 31.97 |
| 64 | `COc1ccccc1OCC(=O)NCc1ncc(C)c(OC)c1C` | -5.048 |
| 65 | `Cc1nc(-c2ccsc2)ccc1C(=O)N1CCn2c(C)nnc2C1` | -47.13 |
| 66 | `Cc1oc(-c2cccc(F)c2F)nc1CN(C)CCC(C)(C)O` | -10.01 |
| 67 | `O=S(=O)(Cc1ccc(F)cc1F)NCCOc1cccnc1` | -32.13 |
| 68 | `O=S(=O)(c1ccccc1)N1CCC2(CCCN2Cc2ccccc2Cl)C1` (stereo not drawn) | 33.63 |
| 69 | `Cc1ccc(CN2CC(C(=O)N3CCCC3)C3(CCOCC3)C2)s1.O=C(O)C(F)(F)F` (stereo not drawn) | -19.13 |
| 70 | `Cc1ccc(C2CCCCCN2C(=O)Nc2cn[nH]c2)o1` (stereo not drawn) | -26.46 |
| 71 | `O=C(O)C(F)(F)F.[H][C@@]12CN(CC)C[C@]1([H])[C@@H](OC)CCN2C(=O)Cc1ccsc1` | -11 |
| 72 | `O=C(O)C(F)(F)F.O=C(O)C(F)(F)F.c1csc(CN2CCOCC3(CCN(C4CCOCC4)C3)C2)c1` (stereo not drawn) | 45.09 |
| 73 | `Cc1cncc(C(=O)N(c2ccc(F)cn2)C2CCOCC2)c1` | -34.57 |
| 74 | `Cc1ccc(S(=O)(=O)NC(=O)c2c(C)noc2C(C)C)cc1C` | 18.75 |
| 75 | `CN(C)C1CCCN(C(=O)c2cccc(-c3ncc[nH]3)c2)CC1` (stereo not drawn) | -3.463 |

For reference, 8 entries once more:

| SMILES | effect |
|---|---|
| `O=C1CCC2(CCCN(C(=O)c3ccc[nH]3)C2)CN1CCc1c[nH]cn1` (stereo not drawn) | -67.51 |
| `COC(=O)c1cccc(-c2nc(CC3CCN(C)CC3)no2)c1` | -26.12 |
| `COc1ncccc1C(=O)N1CCC(c2nnc(C3CC3)o2)CC1` | 42.71 |
| `Cc1c(Cn2c(=O)cnc3ccccc32)cnn1C` | 1.651 |
| `CC(C)C(O)C1CCN(c2ccnc(C(=O)NCc3ccco3)c2)CC1` (stereo not drawn) | -107.2 |
| `COc1c(C2CCCN2C(=O)Cc2c(C)noc2C)c(C)nn1C` (stereo not drawn) | 31.97 |
| `O=S(=O)(c1ccccc1)N1CCC2(CCCN2Cc2ccccc2Cl)C1` (stereo not drawn) | 33.63 |
| `COc1cc(-c2cc(OC)c(OC)c(OC)c2)ncn1` | -2.102 |

From ChEMBL document CHEMBL3988442, “University of Dundee, Small-Polar-MMV Screening Library” (2021).